In paper PMC7618786:
These are yes or no findings as the source states them, for the method shown. In cells and extracts the contact can be indirect. Binding calls can cover weak binding; strength is not graded here. Sequences can lack the tags named with a protein. Blank lines part the entries; values can stand above or below the molecule they belong to.

Experiments:
[1] = target: T1, HA-tagged iR2-1-374, nuclear N-terminal fragment of mouse iRhom2 (tetracycline inducible) (mouse) (UniProt Q80WQ6); experiment: co-IP; HEK293T stably expressing tetracycline-inducible HA-tagged iR2-1-374; IP: HA; immunoblot for endogenous nuclear proteins
T1 sequence: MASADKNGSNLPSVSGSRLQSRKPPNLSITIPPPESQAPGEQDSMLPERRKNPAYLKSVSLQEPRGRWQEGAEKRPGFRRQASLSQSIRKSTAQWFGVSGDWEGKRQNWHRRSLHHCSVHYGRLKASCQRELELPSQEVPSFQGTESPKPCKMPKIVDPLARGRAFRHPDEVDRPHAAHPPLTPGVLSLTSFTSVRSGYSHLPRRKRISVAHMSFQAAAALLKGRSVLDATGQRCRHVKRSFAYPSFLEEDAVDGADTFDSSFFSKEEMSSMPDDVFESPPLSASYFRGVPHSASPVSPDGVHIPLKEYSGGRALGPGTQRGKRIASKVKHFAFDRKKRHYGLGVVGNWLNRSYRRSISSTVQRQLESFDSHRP

[2] = target: mouse iRhom2 lacking the luminal iRhom homology domain, C-terminal HA tag (iR2_ΔIRHD) (mouse) (UniProt Q80WQ6); experiment: co-IP; HEK293T transfected with HA-tagged iRhom2 constructs and SEC11A, 36-48 h; Triton X-100 lysate; IP: HA with anti-HA magnetic beads, 4°C overnight; washes with 500 mM NaCl; immunoblot
[3] = target: mouse iRhom2 uncleavable LVLF mutant with C-terminal HA tag (mouse) (UniProt Q80WQ6); experiment: as above

binding [1]: binds
Molecule: transcription factor IID (TFIID) (human (endogenous in HEK293T))

binding [2]: binds | binding [3]: binds
B1: SEC11A, catalytic subunit of the signal peptidase complex (SEC11A-Myc-FLAG) (enzyme, UniProt P67812 1-179)
chain: MLSLDFLDDVRRMNKRQLYYQVLNFGMIVSSALMIWKGLMVITGSESPIVVVLSGSMEPAFHRGDLLFLTNRVEDPIRVGEIVVFRIEGREIPIVHRVLKIHEKQNGHIKFLTKGDNNAVDDRGLYKQGQHWLEKKDVVGRARGFVPYIGIVTILMNDYPKFKYAVLFLLGLFVLVHRE
